Data taken from the supplement of paper PMC8728848.
Some of the results follow.

Assays:
Test in all cases: glycan array binding signal (z-score within array); higher = stronger binding
Conditions in all cases: glycan notation: IUPAC condensed, linker removed
Fuc(a1-2)Gal = target: Fuc(a1-2)Gal
In short: (§1)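 Glycan array data were curated from 3228 arrays in the Consortium for Functional Glycomics database and kept only where the protein sequence was available. Glycan names were converted to IUPAC-condensed notation, and columns mapping to the same glycan were averaged. The binding signal is a within-array Z-score, averaged across arrays of the same protein sequence at different concentrations or buffers and across linkers. Negative Z-scores can be read as non-binding.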

Fuc(a1-2)Gal(b1-3)GalNAc = target: Fuc(a1-2)Gal(b1-3)GalNAc
In short: as §1

[1] = target: Fuc(a1-2)Gal(b1-3)GalNAc(a1-3)[Fuc(a1-2)]Gal(b1-4)Glc
In short: as §1

[2] = target: Fuc(a1-2)Gal(b1-3)GalNAc(a1-3)[Fuc(a1-2)]Gal(b1-4)GlcNAc
In short: as §1

[3] = target: Fuc(a1-2)Gal(b1-3)GalNAc(b1-3)Gal
In short: as §1

[4] = target: Fuc(a1-2)Gal(b1-3)GalNAc(b1-3)Gal(a1-4)Gal(b1-4)Glc
In short: as §1

[5] = target: Fuc(a1-2)Gal(b1-3)GalNAc(b1-4)[Neu5Ac(a2-3)]Gal(b1-4)Glc
In short: as §1

Fuc(a1-2)Gal(b1-3)GlcNAc = target: Fuc(a1-2)Gal(b1-3)GlcNAc
In short: as §1

[6] = target: Fuc(a1-2)Gal(b1-3)GlcNAc(b1-2)Man(a1-3)[Fuc(a1-2)Gal(b1-3)GlcNAc(b1-2)Man(a1-6)]Man(b1-4)GlcNAc(b1-4)GlcNAc
In short: as §1

[7] = target: Fuc(a1-2)Gal(b1-3)GlcNAc(b1-2)Man(a1-3)[Fuc(a1-2)Gal(b1-3)GlcNAc(b1-2)Man(a1-6)]Man(b1-4)GlcNAc(b1-4)[Fuc(a1-6)]GlcNAc
In short: as §1

[8] = target: Fuc(a1-2)Gal(b1-3)GlcNAc(b1-3)Gal(b1-4)Glc
In short: as §1

[9] = target: Fuc(a1-2)Gal(b1-3)GlcNAc(b1-3)GalNAc
In short: as §1

[10] = target: Fuc(a1-2)Gal(b1-3)GlcNAc(b1-3)[Fuc(a1-2)Gal(b1-3)GlcNAc(b1-6)]GalNAc
In short: as §1

[11] = target: Fuc(a1-2)Gal(b1-3)GlcNAc(b1-3)[Gal(b1-4)GlcNAc(b1-6)]Gal(b1-4)Glc
In short: as §1

[12] = target: Fuc(a1-2)Gal(b1-3)GlcNAc(b1-3)[Neu5Ac(a2-6)Gal(b1-4)GlcNAc(b1-6)]Gal(b1-4)Glc
In short: as §1

[13] = target: Fuc(a1-2)Gal(b1-3)GlcNAc6S
In short: as §1

[14] = target: Fuc(a1-2)Gal(b1-3)[Fuc(a1-4)]GlcNAc
In short: as §1

[15] = target: Fuc(a1-2)Gal(b1-3)[Fuc(a1-4)]GlcNAc(b1-2)Man(a1-3)[Fuc(a1-2)Gal(b1-3)[Fuc(a1-4)]GlcNAc(b1-2)Man(a1-3)]Man(b1-4)GlcNAc(b1-4)GlcNAc
In short: as §1

[16] = target: Fuc(a1-2)Gal(b1-3)[Fuc(a1-4)]GlcNAc(b1-2)Man(a1-3)[Fuc(a1-2)Gal(b1-3)[Fuc(a1-4)]GlcNAc(b1-2)Man(a1-6)]Man(b1-4)GlcNAc(b1-4)[Fuc(a1-6)]GlcNAc(b1-4)[Fuc(a1-6)]GlcNAc
In short: as §1

[17] = target: Fuc(a1-2)Gal(b1-3)[Fuc(a1-4)]GlcNAc(b1-3)[Fuc(a1-3)[Gal(b1-4)]GlcNAc(b1-6)]Gal(b1-4)Glc
In short: as §1

[18] = target: Fuc(a1-2)Gal(b1-3)[Fuc(a1-4)]GlcNAc(b1-3)[Gal(b1-4)GlcNAc(b1-6)]Gal(b1-4)Glc
In short: as §1

Fuc(a1-2)Gal(b1-4)Glc = target: Fuc(a1-2)Gal(b1-4)Glc
In short: as §1

Fuc(a1-2)Gal(b1-4)Glc6S = target: Fuc(a1-2)Gal(b1-4)Glc6S
In short: as §1

Fuc(a1-2)Gal(b1-4)GlcNAc = target: Fuc(a1-2)Gal(b1-4)GlcNAc
In short: as §1

[19] = target: Fuc(a1-2)Gal(b1-4)GlcNAc(b1-2)Man
In short: as §1

[20] = target: Fuc(a1-2)Gal(b1-4)GlcNAc(b1-2)Man(a1-3)[Fuc(a1-2)Gal(b1-4)GlcNAc(b1-2)Man(a1-6)]Man(b1-4)GlcNAc(b1-4)GlcNAc
In short: as §1

[21] = target: Fuc(a1-2)Gal(b1-4)GlcNAc(b1-2)Man(a1-3)[Fuc(a1-2)Gal(b1-4)GlcNAc(b1-2)Man(a1-6)]Man(b1-4)GlcNAc(b1-4)[Fuc(a1-6)]GlcNAc
In short: as §1

[22] = target: Fuc(a1-2)Gal(b1-4)GlcNAc(b1-2)[Fuc(a1-2)Gal(b1-4)GlcNAc(b1-4)]Man(a1-3)[Fuc(a1-2)Gal(b1-4)GlcNAc(b1-2)Man(a1-6)]Man(b1-4)GlcNAc(b1-4)GlcNAc
In short: as §1

[23] = target: Fuc(a1-2)Gal(b1-4)GlcNAc(b1-3)Gal(b1-4)GlcNAc
In short: as §1

[24] = target: Fuc(a1-2)Gal(b1-4)GlcNAc(b1-3)Gal(b1-4)GlcNAc(b1-2)Man(a1-3)[Fuc(a1-2)Gal(b1-4)GlcNAc(b1-3)Gal(b1-4)GlcNAc(b1-2)Man(a1-6)]Man(b1-4)GlcNAc(b1-4)GlcNAc
In short: as §1

B1: PX9961W-pdi-543-27-543 (Parabacteroides distasonis) (protein)
chain: EGNATTTSYFLNDQQAIDAIDGLYERFHQEGCYGRELFWEQGAACDIVWGRTRGYNSLATLAYTGDESPLRDVFSRMYSTMSRANWIIQELVKKEKGTTLTAVEKRSLGEAYFSRGWAHYLIAYRYGTDKQGVPFVRYEDFPDDYDNSIPPQQATVMDNYKLIIEDMDKAIAYLPIFESYDADNRGRAHQAAAVAFKAKTYAYWATWDATQWNNVIEMVNQLENNYNRDLAPTFAELFSSDLKDYWNAEYLWTIPSIGGALPGGTEFPGIILENKGWGKYNGWGQMKPSYDIYEEMAKDGKGNDRLVRSILEYNQEFPFFGETRKFWSTSDLEAGFMINKYMDAFKYSDPVGEGAVSANGDWPTVRVNFPIIRFAEMLLFRAEAYLMTGQADKATADINRIRLRSNLTPLTGTATMKDLYHERRCELAFEFTDHLFDLKRWNRSSNADIKTLADKELNAHPRIRRYEDRANPESAFTIIGYEDYTNKNAYQAHMMVFPYPSEEITKSNGQLKQNEGY
- glycan array binding signal (z-score) (Fuc(a1-2)Gal): -0.07
- glycan array binding signal (z-score) (Fuc(a1-2)Gal(b1-3)GalNAc): -0.751
- glycan array binding signal (z-score) [1]: -0.004
- glycan array binding signal (z-score) [2]: 0.334
- glycan array binding signal (z-score) [3]: 0.732
- glycan array binding signal (z-score) [4]: -0.337
- glycan array binding signal (z-score) [5]: -0.392
- glycan array binding signal (z-score) (Fuc(a1-2)Gal(b1-3)GlcNAc): -0.404
- glycan array binding signal (z-score) [6]: 1.64
- glycan array binding signal (z-score) [7]: -0.254
- glycan array binding signal (z-score) [8]: -1.01
- glycan array binding signal (z-score) [9]: -0.213
- glycan array binding signal (z-score) [10]: -0.089
- glycan array binding signal (z-score) [11]: 1.74
- glycan array binding signal (z-score) [12]: 0.178
- glycan array binding signal (z-score) [13]: -0.369
- glycan array binding signal (z-score) [14]: -0.476
- glycan array binding signal (z-score) [15]: 0.3
- glycan array binding signal (z-score) [16]: 0.172
- glycan array binding signal (z-score) [17]: -0.034
- glycan array binding signal (z-score) [18]: -0.805
- glycan array binding signal (z-score) (Fuc(a1-2)Gal(b1-4)Glc): 0.505
- glycan array binding signal (z-score) (Fuc(a1-2)Gal(b1-4)Glc6S): -0.328
- glycan array binding signal (z-score) (Fuc(a1-2)Gal(b1-4)GlcNAc): -0.724
- glycan array binding signal (z-score) [19]: -0.149
- glycan array binding signal (z-score) [20]: 0.285
- glycan array binding signal (z-score) [21]: 0.061
- glycan array binding signal (z-score) [22]: -0.27
- glycan array binding signal (z-score) [23]: -0.321
- glycan array binding signal (z-score) [24]: 0.321
